Source: patent US20240400677A1
Numbering of substitutions follows the chain as printed. Results are given in words; binding and its absence hold for the method and conditions named. Some results given as binding are weak or reduced against the parent protein; the word gives no strength.

Amino acid sequences for entries named in this document (tags omitted). A change or cut given only in a name is not applied to a line headed by its entry. Chains listed by the source or under a name are the forms on record and can include a tag or linker. Residues count along the entry.
UniProt Q9P1W8: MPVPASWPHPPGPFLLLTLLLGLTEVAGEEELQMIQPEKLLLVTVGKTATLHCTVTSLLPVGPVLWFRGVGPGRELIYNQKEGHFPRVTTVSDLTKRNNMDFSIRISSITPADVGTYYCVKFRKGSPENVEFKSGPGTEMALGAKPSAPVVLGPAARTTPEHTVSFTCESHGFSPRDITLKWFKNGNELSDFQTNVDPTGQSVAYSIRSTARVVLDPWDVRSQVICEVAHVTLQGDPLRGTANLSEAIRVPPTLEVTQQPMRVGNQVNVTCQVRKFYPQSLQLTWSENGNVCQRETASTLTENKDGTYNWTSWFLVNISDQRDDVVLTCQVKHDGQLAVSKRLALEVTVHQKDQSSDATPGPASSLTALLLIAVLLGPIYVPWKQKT
human SIRPα V2-His monomer protein (P78324, form named): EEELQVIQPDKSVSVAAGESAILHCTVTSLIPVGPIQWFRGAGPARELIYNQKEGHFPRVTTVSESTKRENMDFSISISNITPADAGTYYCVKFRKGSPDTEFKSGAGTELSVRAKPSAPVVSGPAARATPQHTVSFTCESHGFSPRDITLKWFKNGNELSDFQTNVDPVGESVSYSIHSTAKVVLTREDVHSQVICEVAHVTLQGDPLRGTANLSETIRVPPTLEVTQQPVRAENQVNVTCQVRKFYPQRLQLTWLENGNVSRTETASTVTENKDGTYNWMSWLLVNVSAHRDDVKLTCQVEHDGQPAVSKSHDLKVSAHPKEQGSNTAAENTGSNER
UniProt O00241, residues 30-371: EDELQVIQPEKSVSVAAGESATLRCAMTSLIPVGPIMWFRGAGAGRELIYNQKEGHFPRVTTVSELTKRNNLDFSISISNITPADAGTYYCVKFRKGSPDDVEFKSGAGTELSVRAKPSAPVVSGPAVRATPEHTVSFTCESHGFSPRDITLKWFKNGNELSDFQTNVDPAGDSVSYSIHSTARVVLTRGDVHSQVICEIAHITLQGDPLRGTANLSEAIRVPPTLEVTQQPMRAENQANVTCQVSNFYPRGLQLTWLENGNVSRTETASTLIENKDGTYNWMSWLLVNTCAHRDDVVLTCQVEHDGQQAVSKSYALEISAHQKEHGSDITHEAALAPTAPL

B1: Antibody 74 (antibody, V domains shown)
VH: QVQLVQSGAEVKKPGASVKVSCKASGGTFSNYGFSWVRQAPGQGLEWMGWMSPSSGNTGYAQKFQGRVTMTRDTSTSTVYMELSSLRSEDTAVYYCARERSGSYFDYWGQGTLVTVSS
VL: EIVMTQSPATLSVSPGERATLSCRASQSVSSYLAWYQQKPGQAPRLLIYGTSTRATGIPARFSGSGSGTEFTLTISSLQSEDFAVYYCQQYGSLPFTFGQGTRLEIK
B2: Antibody 75 (antibody, V domains shown)
VH: QVQLVQSGAEVKKPGSSVKVSCKASGGTFSNYAISWVRQAPGQGLEWMGGIIPIFGSTASYAQKFQGRVTITADESTSTAYMELSSLRSEDTAVYYCARGVGDDTLTDWGQGTLVTVSS
VL: DIVMTQSPLSLPVTPGEPASISCRSSQSLLHSNGYNYLDWYLQKPGQSPQLLIYAASSLQSGVPDRFSGSGSGTDFTLKISRVEAEDVGVYYCMQALQTPLTFGGGTKVEIK
B3: Antibody 57 (antibody, V domains shown)
VH: QVQLVQSGAEVKKPGASVKVSCKASGYTFTSYYMHWVRQAPGQGLEWMGWINPNSGNAGFAQKFQGRVTMTRDTSTSTVYMELSSLRSEDTAVYYCARGPVYSYGPFDYWGQGTLVTVSS
VL: DIQMTQSPSSLSASVGDRVTITCRASQGISTYLAWYQQKPGKAPKLLIYAASTLQSGVPSRFSGSGSGTDFTLTISSLQPEDFATYYCQQSHSAPITFGQGTKVEIK
B4: Antibody 58 (antibody, V domains shown)
VH: QVQLVQSGAEVKKPGASVKVSCKASGYTFTAYYMHWVRQAPGQGLEWMGIINPSGGSTSYAQKFQGRVTMTRDTSTSTVYMELSSLRSEDTAVYYCARDSGWYAPGYYYGMDVWGQGTTVTVSS
VL: B3 VL with Q27E, G28S, T31H, Y32W, A50G, H92Y, S93T, A94P, I96L, Q100G
B5: Antibody 81 (antibody, V domains shown)
VH: QVQLVQSGAEVKKPGASVKVSCKASGYTFTSYDINWVRQAPGQGLEWMGWISGYNGNTNYAQKFQGRVTMTRDTSTSTVYMELSSLRSEDTAVYYCARSFDWLLLLDYWGQGTLVTVSS
VL: DIQMTQSPSSLSASVGDRVTITCRASQSISSWLAWYQQKPGKAPKLLIYDATTLESGVPSRFSGSGSGTDFTLTISSLQPEDFATYYCQQYDSYPWTFGQGTKLEIK
B6: Antibody 55 (antibody, V domains shown)
VH: EVQLLESGGGLVQPGGSLRLSCAASGFTFSNSDMNWVRQAPGKGLEWVSYISSSGNTIYYADSVKGRFTISRDNSKNTLYLQMNSLRAEDTAVYYCARSNWNYPLDYYYMDVWGKGTTVTVSS
VL: B2 VL with A96G, L97T, Q98H, T99W, L101P, G105Q
B7: Antibody 95 (antibody, V domains shown)
VH: QVQLVQSGAEVKKPGASVKVSCKASGYTFTSYYMHWVRQAPGQGLEWMGWMNPNSGNTGYAQKFQGRVTMTRDTSTSTVYMELSSLRSEDTAVYYCARDQMYSSYGMDVWGQGTTVTVSS
VL: DIQMTQSPSSLSASVGDRVTITCRASESITNWLAWYQQKPGKAPKLLIYKASSLESGVPSRFSGSGSGTDFTLTISSLQPEDFATYYCQQSYGTPYTFGQGTKVEIK
B8: Antibody 97 (antibody, V domains shown)
VH: QVQLVQSGAEVKKPGASVKVSCKASGHTFNNNYIHWVRQAPGQGLEWMGIINPSGGSTSYAQKFQGRVTMTRDTSTSTVYMELSSLRSEDTAVYYCARQIQDYGYYYYGMDVWGQGTTVTVSS
VL: B1 VL with S31K, G50A, T51I, T53A, T56A, G92Y, L94S, F96P, R103K, L104V
B9: Antibody 86 (antibody, V domains shown)
VH: EVQLLESGGGLVQPGGSLRLSCAASGFTLGSYWMHWVRQAPGKGLEWVSLISWDGGSTYYADSVKGRFTISRDNSKNTLYLQMNSLRAEDTAVYYCAKGPWVGYSGYDLNYYYYGMDVWGQGTTVTVSS
VL: DIQMTQSPSSLSASVGDRVTITCRASQDIRRALAWYQQKPGKAPKLLIYAASSLQSGVPSRFSGSGSGTDFTLTISSLQPEDFATYYCLQHNSYPPTFGQGTKLEIK
B10: Antibody 84 (antibody, V domains shown)
VH: B3 VH
VL: B3 VL
B11: Antibody 90 (antibody, V domains shown)
VH: QVQLVQSGAEVKKPGASVKVSCKASGYTFTSYYMHWVRQAPGQGLEWMGWMNPNSDNTGYAQKFQGRVTMTRDTSTSTVYMELSSLRSEDTAVYYCARVGVGYGYYYYGMDVWGQGTTVTVSS
VL: B3 VL with S26G, G28S, S30G, T31D, A34N, T53S, H92Y, A94T, I96W
B12: Antibody 96 (antibody, V domains shown)
VH: QVQLVQSGAEVKKPGASVKVSCKASGYTFTRYDINWVRQAPGQGLEWMGWMNPNSGNTGYAQKLQGRVTMTRDTSTSTVYMELSSLRSEDTAVYYCARERVGYCSSTSCLHPLDYWGQGTLVTVSS
VL: DIQMTQSPSSLSASVGDRVTITCRASQGIRNDLGWYQQKPGKAPKLLIYSASNLQSGVPSRFSGSGSGTDFTLTISSLQPEDFATYYCQQSYDVPLTFGGGTKVEIK
B13: Antibody 83 (antibody, V domains shown)
VH: QVQLVQSGAEVKKPGASVKVSCKASGYSFSDYYMHWVRQAPGQGLEWMGWMSPNSGNTGYAQKFQGRVTMTRDTSTSTVYMELSSLRSEDTAVYYCARQREEYGHYYYGMDVWGQGTMVTVSS
VL: EIVMTQSPATLSVSPGERATLSCRASQSLGSTYLAWYQQKPGQAPRLLIYGASTRATGIPARFSGSGSGTEFTLTISSLQSEDFAVYYCQQYYSSPPTFGQGTKVEIK
B14: Antibody 89 (antibody, V domains shown)
VH: QVQLVQSGAEVKKPGASVKVSCKASGGTFSSYAISWVRQAPGQGLEWMGIINPSSSSTGYAQKFQGRVTMTRDTSTSTVYMELSSLRSEDTAVYYCARAGYYDSSGYYYSPYYGMDVWGQGTTVTVSS
VL: B13 VL with L29I, G30S, S31G, T32S, Y93G, S95F, P97F, Q101P, E106D
B15: Antibody 88 (antibody, V domains shown)
VH: QVQLVQSGAEVKKPGASVKVSCKASGYTFTSHDINWVRQAPGQGLEWMGWMNANNGNAGYAQKFQGRVTMTRDTSTSTVYMELSSLRSEDTAVYYCAKDLSPSSSWSTYYYYYGMDVWGQGTMVTVSS
VL: B7 VL with E27Q, T30S, W32L, K50A, E55Q, G93S, V104L
B16: Antibody 5 (antibody, V domains shown)
VH: QVQLVQSGAEVKKPGASVKVSCKASGYTFTGYHIHWVRQAPGQGLEWMGWINPNSGGTNYAQKFQGRVTMTRDTSINTAYMELNRLRSDDTAVFYCARERVGYCSRPSCLDDLNIWGQGTMVTVSS
VL: DIQMTQSPSTLSASVGDRVTITCRASQSISSWLAWYQQKPGKAPKLLIYKASSLETGVPSRFSGSGSGTEFTLTISSLQPDDFATYYCQQYDSYYTFGQGTKLEIK
B17: Antibody 6 (antibody, V domains shown)
VH: B16 VH
VL: B16 VL
B18: Antibody 8 (antibody, V domains shown)
VH: B16 VH
VL: B16 VL
B19: Antibody 41 (scFv, V domains shown)
VH: B2 VH
VL: B2 VL

Target: Cynomolgus Monkey SIRPγ (plate-coated extracellular domain)
Experiment: ELISA, coated SIRP ECD (2 µg/mL), anti-human IgG, luminescence

binding | Binder
binds | B1
binds | B2
binds | B3
binds | B4
binds | B5

Target: extracellular binding domain of human SIRPγ (plate-coated) (human) (UniProt Q9P1W8)
Experiment: as above

binding | Binder
binds | B1
binds | B2
binds | B6
binds | B3
binds | B4
binds | B5

Target: human SIRPγ on primary human T-cells (human) (UniProt Q9P1W8)
Experiment: flow cytometry, human T-cells, 20 µg/mL

binding | Binder
binds | B7
binds | B8
binds | B9
binds | B10
binds | B11
binds | B12
binds | B13
binds | B14
binds | B15

Target: human SIRPγ on stably transfected CHO cells (human) (UniProt Q9P1W8)
Experiment: flow cytometry, CHO transfectants, anti-human IgG

binding | Binder
binds | B1
binds | B6
binds | B3
binds | B4
binds | B5

Target: cynomolgus monkey SIRPγ on CHO cells (cynomolgus monkey)
Experiment: flow cytometry, CHO transfectants, anti-human IgG

binding | Binder
binds | B1
binds | B6
binds | B3
binds | B4
binds | B5

Target: human SIRPγ on primary human T-cells (human) (UniProt Q9P1W8)
Experiment: flow cytometry, dye-conjugated antibody, human whole blood (3 donors)

binding | Binder
binds | B9
binds | B16
binds | B17
binds | B18

Target: cynomolgus monkey SIRPα-His monomer protein (cynomolgus monkey)
Experiment: BLI

binding | Binder
no binding (tested: <0.02 nm at 115 s) | B19

Target: human SIRPα V2-His monomer protein (human) (UniProt P78324)
Experiment: BLI

Binder | binding
B19 | no binding (tested: <0.02 nm at 115 s; 500 nM)

Target: human SIRPβ1-His monomer protein (human) (UniProt O00241)
Experiment: BLI

Binder | binding
B19 | no binding (tested: <0.02 nm at 115 s; 500 nM)

Target: cynomolgus monkey SIRPγ on primary cynomolgus monkey T cells
Experiment: flow cytometry, naive and stimulated cynomolgus CD3+ T cells

binding | Binder
binds | B8
binds | B9
binds | B10

Target: human SIRPγ on primary human T-cells (human) (UniProt Q9P1W8)
Experiment: flow cytometry, naive and stimulated human CD3+ T cells

binding | Binder
binds | B10
binds | B11
binds | B12
binds | B13
binds | B15
